From the supplement of paper PMC7024190
Counter-ions that a name gives are not always drawn. The list shows a part of the results. Repeats in this data set agree poorly, so a single value says little.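 A first-round screen of about ten thousand compounds sought those raising reporter output, using human embryonic kidney cells briefly transfected with a plasmid carrying a Renilla luciferase gene driven by the HSV-TK promoter.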

Each compound was assayed on HEK 293FT (assay: log relative Renilla luciferase luminescence (reporter expression vs reference, reference not stated) (log (base not stated)); higher = higher recombinant reporter expression). Conditions: 10 µM; time after transfection 48 h.

| Structure (SMILES) | log |
| --- | --- |
| CC(=O)Oc1ccc(C(c2ccc(OC(C)=O)cc2)c2ccccn2)cc1 [Bisacodyl] | -0.22 |
| CCCc1nn(C)c2c(=O)[nH]c(-c3cc(S(=O)(=O)N4CCN(C)CC4)ccc3OCC)nc12 [Sildenafil] | 0.00502 |
| CCCNC(C)(C)COC(=O)c1ccccc1 [Meprylcaine hydrochloride] | 0.0655 |
| NC1CCN(c2c(F)cc3c(=O)c(C(=O)O)cn(C4CC4)c3c2Cl)C1 (configuration not stated) [Clinafloxacin] | -0.085 |
| CCC1(C)CC(=O)NC1=O (configuration not stated) [Ethosuximide] | -0.0382 |
| C[N+](C)(CCOc1ccccc1)Cc1ccccc1.O=C([O-])c1cc2ccccc2cc1O [Bephenium hydroxynaphthoate] | 0.166 |
| CC(NCCc1ccc(O)cc1)C(O)c1ccc(O)cc1 (configuration not stated) [Ritodrine hydrochloride] | 0.115 |
| CCc1nn(CCCN2CCN(c3cccc(Cl)c3)CC2)c(=O)n1CCOc1ccccc1 [Nefazodone HCl] | 0.0641 |
| OCCN1CCN(CC/C=C2/c3ccccc3Sc3ccc(Cl)cc32)CC1 [Zuclopenthixol hydrochloride] | -0.213 |
| CN(C)CCOC(=O)C(c1ccccc1)C1(O)CCCC1 (configuration not stated) [Cyclopentolate hydrochloride] | 0.0641 |
| Nc1ccc(/N=N/c2ccccc2)c(N)n1 [Phenazopyridine hydrochloride] | -0.105 |
| CCC(=O)O[C@]1(C(=O)SCF)[C@H](C)C[C@H]2[C@@H]3C[C@H](F)C4=CC(=O)C=C[C@]4(C)[C@@]3(F)[C@@H](O)C[C@@]21C [Fluticasone propionate] | -0.445 |
| O=C(O)c1ccccc1Nc1cccc(C(F)(F)F)c1 [Flufenamic acid] | 0.125 |
| CC[N+](C)(CC)CCC[n+]1c(-c2ccccc2)c2cc(N)ccc2c2ccc(N)cc21 [Propidium iodide] | -0.00123 |
| O=C1O[C@H]([C@@H](O)CO)C(O)=C1O [Ascorbic acid] | -0.132 |
| Clc1ccc(C(c2ccccc2Cl)C(Cl)Cl)cc1 (configuration not stated) [Mitotane] | 0.0967 |
| O=C1Nc2ccc(Cl)cc2[C@@](C#CC2CC2)(C(F)(F)F)O1 [Efavirenz] | -0.0919 |
| COC1=CC(=O)C[C@@H](C)[C@]12Oc1c(Cl)c(OC)cc(OC)c1C2=O [Griseofulvin] | -0.0364 |
| CN(C)CCC(c1ccc(Cl)cc1)c1ccccn1 (configuration not stated) [Chlorpheniramine maleate] | 0.0238 |
| COc1cc(N)c(Cl)cc1C(=O)NC1CCN(CCCOc2ccc(F)cc2)CC1OC (configuration not stated) [Cisapride] | -0.015 |
| CN(C)CCCC1(c2ccc(F)cc2)OCc2cc(C#N)ccc21 (configuration not stated) [Citalopram Hydrobromide] | 0.0896 |
| CCCC(CCC)C(=O)O [Valproic acid] | -1.09 |
| Cc1onc(-c2ccccc2)c1C(=O)N[C@@H]1C(=O)N2[C@@H]1SC(C)(C)[C@@H]2C(=O)O [Oxacillin sodium] | 0.153 |
| O=C(O)CNC(=O)C(CS)Cc1ccccc1 (configuration not stated) [Thiorphan] | -0.0382 |
| Cc1c(OCC(F)(F)F)ccnc1C[S+]([O-])c1nc2ccccc2[nH]1 (configuration not stated) [Lansoprazole] | 0.0781 |
| Cn1c(=O)c2c(ncn2C)n(C)c1=O [Caffeine] | 0.06 |

| Structure (SMILES) | log |
| --- | --- |
| CC(C)(C)NCC(O)c1ccc(O)c(CO)c1 (configuration not stated) [Salbutamol] | 0.0612 |
| O=C(O[C@@H]1C[C@@H]2C[C@H]3C[C@H](C1)N2CC3=O)c1c[nH]c2ccccc12 [Dolasetron mesilate] | -0.0407 |
| COC(=O)Nc1nc2cc(C(=O)c3ccc(F)cc3)ccc2[nH]1 [Flubendazol] | 0.0179 |
| O=C(NCC1CCCCN1)c1cc(OCC(F)(F)F)ccc1OCC(F)(F)F (configuration not stated) [Flecainide acetate] | -0.165 |
| CC1CCc2cc(F)cc3c(=O)c(C(=O)O)cn1c23 (configuration not stated) [Flumequine] | 0.154 |
| CCCCOc1ccc(OCCCN2CCOCC2)cc1 [Pramoxine hydrochloride] | 0.159 |
| COc1ccccc1OCCNCC(O)COc1cccc2[nH]c3ccccc3c12 (configuration not stated) [Carvedilol] | -0.275 |
| COc1cc(N)c(Cl)cc1C(=O)NC1CCN(Cc2ccccc2)CC1 [Clebopride maleate] | 0.156 |
| CCN1CCCC1CNC(=O)c1cc(S(=O)(=O)CC)c(N)cc1OC (configuration not stated) [Amisulpride] | -0.0437 |
| Nc1nc(N)nc(-c2cc(Cl)ccc2Cl)n1 [Irsogladine maleate] | 0.111 |
| CC(CN1c2ccccc2Sc2ccccc21)N(C)C (configuration not stated) [Promethazine hydrochloride] | 0.166 |
| NS(=O)(=O)c1cc2c(cc1C(F)(F)F)NC(Cc1ccccc1)NS2(=O)=O (configuration not stated) [Bendroflumethiazide] | 0.0647 |
| O=C(c1ccc(OCCN2CCCCC2)cc1)c1c(-c2ccc(O)cc2)sc2cc(O)ccc12 [Raloxifene hydrochloride] | 0.206 |
| CCn1cc(C(=O)O)c(=O)c2cc(F)c(N3CCNCC3)cc21 [Norfloxacin] | 0.0655 |
| CCOC(=O)C1=C(C)NC(C)=C(C(=O)OC)C1c1cccc([N+](=O)[O-])c1 (configuration not stated) [Nitrendipine] | 0.127 |
| CC1=C(C(=O)O)N2C(=O)[C@@H](NC(=O)[C@H](N)c3ccc(O)cc3)[C@H]2SC1 [Cefadroxil] | 0.0344 |
| C=CCN1CCCC1CNC(=O)c1cc2nn[nH]c2cc1OC (configuration not stated) [Alizapride HCl] | -0.243 |
| CC(C)(Oc1ccc(C2CC2(Cl)Cl)cc1)C(=O)O (configuration not stated) [Ciprofibrate] | 0.104 |
| C=C(NC(=O)C(=C)NC(=O)c1csc(C2=N[C@@H]3c4csc(n4)[C@H]4NC(=O)c5csc(n5)[C@H]([C@](C)(O)[C@@H](C)O)NC(=O)[C@H]5CSC(=N5)/C(=C/C)NC(=O)[C@H]([C@@H](C)O)NC(=O)c5csc(n5)[C@]3(CC2)NC(=O)[C@H](C)NC(=O)C(=C)NC(=O)[C@H](C)NC(=O)[C@H]([C@@H](C)CC)N[C@@H]2C=Cc3c([C@H](C)O)cc(nc3[C@H]2O)C(=O)O[C@@H]4C)n1)C(N)=O [Thiostrepton] | -1.34 |
| CC(=C(CCO)SSCC1CCCO1)N(C=O)Cc1cnc(C)nc1N (stereo in doubt) [Fursultiamine Hydrochloride] | 0.0713 |
| CCC(C)(CN(C)C)OC(=O)c1ccccc1 (configuration not stated) [Amyleine hydrochloride] | 0.104 |
| NC(=O)c1cccnc1 [Nicotinamide] | -0.0547 |
| Cn1c(=O)c2c(ncn2CC(O)CO)n(C)c1=O (configuration not stated) [Diprophylline] | 0.104 |
| CNC1(C)C2CCC(C2)C1(C)C (configuration not stated) [Mecamylamine hydrochloride] | 0.0496 |
| CC[C@]12CCCN3CCc4c(n(c5ccccc45)[C@@](O)(C(=O)OC)C1)[C@@H]32 [Vincamine] | -1.15 |
| Nc1ccc(S(N)(=O)=O)cc1 [Sulfanilamide] | -0.196 |

Four of these compounds, set out differently:
Structure (SMILES),log
Clc1ccc(C(c2ccccc2Cl)C(Cl)Cl)cc1 (configuration not stated) [Mitotane],0.0967
O=C1Nc2ccc(Cl)cc2[C@@](C#CC2CC2)(C(F)(F)F)O1 [Efavirenz],-0.0919
COC1=CC(=O)C[C@@H](C)[C@]12Oc1c(Cl)c(OC)cc(OC)c1C2=O [Griseofulvin],-0.0364
CN(C)CCC(c1ccc(Cl)cc1)c1ccccn1 (configuration not stated) [Chlorpheniramine maleate],0.0238

Following part:

| Structure (SMILES) | log |
| --- | --- |
| CC(CCc1ccc(O)cc1)NCCc1ccc(O)c(O)c1 (configuration not stated) [Dobutamine hydrochloride] | -0.447 |
| CCSc1ccc2c(c1)N(CCCN1CCN(C)CC1)c1ccccc1S2 [Thiethylperazine dimalate] | -0.0878 |
| CN(C)CCC(c1ccccc1)c1ccccn1 (configuration not stated) [Pheniramine maleate] | 0.126 |
| NC[C@H]1CC[C@H](C(=O)O)CC1 [Tranexamic acid] | 0.0511 |
| C=CCc1ccccc1OCC(O)CNC(C)C (configuration not stated) [Alprenolol hydrochloride] | 0.0503 |
| CCCCOc1ccc(CC(=O)NO)cc1 [Bufexamac] | -0.114 |
| CC(=O)OC(C)C[N+](C)(C)C (configuration not stated) [Methacholine chloride] | 0.0667 |
| O=C(O)c1cc(=O)c2c(OCC(O)COc3cccc4oc(C(=O)O)cc(=O)c34)cccc2o1 [Cromolyn disodium salt] | -0.203 |
| Clc1ccccc1C(c1ccccc1)(c1ccccc1)n1ccnc1 [Clotrimazole] | 0.0713 |
| Clc1ccc(COC(Cn2ccnc2)c2ccc(Cl)cc2Cl)cc1 (configuration not stated) [Econazole nitrate] | 0.0262 |
| C=CC[N@@+]12CC[C@@]34c5ccccc5N5/C=C6/[C@H]7C[C@H]8[C@@]9(CC[N@@+]8(CC=C)C/C7=C/CO)c7ccccc7N(/C=C(/[C@@H](C[C@@H]31)/C(=C\CO)C2)[C@H]54)[C@@H]69 [Alcuronium chloride] | 0.02 |
| CCCC(C(=O)OCCN(CC)CC)(c1ccccc1)c1ccccc1 [Proadifen hydrochloride] | -0.0145 |
| CCN(CC)C(=O)N1CCN(C)CC1 [Diethylcarbamazine citrate] | 0.0619 |
| CCN(CCCc1ccccc1)CCCc1ccccc1 [Alverine citrate salt] | -0.00693 |
| CNCC[C@@H](Oc1ccccc1C)c1ccccc1 [Tomoxetine hydrochloride] | -0.0293 |
| O=C(CCCCC(=O)Nc1c(I)cc(I)c(C(=O)O)c1I)Nc1c(I)cc(I)c(C(=O)O)c1I [Iodipamide] | 0.0914 |
| COCCCOc1ccnc(C[S+]([O-])c2nc3ccccc3[nH]2)c1C (configuration not stated) [Rabeprazole Sodium salt] | -0.0837 |
| O=C(O)Cc1cc(I)c(Oc2ccc(O)c(I)c2)c(I)c1 [Tiratricol, 3,3',5-triiodothyroacetic acid] | 0.111 |
| CCCCOC(=O)c1ccc(O)cc1 [Butylparaben] | 0.139 |
| CCCc1nc2c(C)cc(-c3nc4ccccc4n3C)cc2n1Cc1ccc(-c2ccccc2C(=O)O)cc1 [Telmisartan] | -0.0336 |
| N=C(N)N1CCc2ccccc2C1 [Debrisoquin sulfate] | 0.0943 |
| CC(=O)/N=c1/sc(S(N)(=O)=O)nn1C [Methazolamide] | -0.141 |
| CCCCC1C(=O)N(c2ccccc2)N(c2ccccc2)C1=O [Phenylbutazone] | -0.159 |
| O=C(Nc1ccccc1)OCC(CN1CCCCC1)OC(=O)Nc1ccccc1 (configuration not stated) [Diperodon hydrochloride] | 0.0619 |
| CCCC(=O)Nc1ccc(OCC(O)CNC(C)C)c(C(C)=O)c1 (configuration not stated) [Acebutolol hydrochloride] | 0.121 |
